Among the data in patent US8623909B2, “Prophylactic/therapeutic agents for lifestyle-related diseases” (priority 2008, dated 2014) are Food intake values, retold here.

The test system of the data set is B6 mice on high-fat diet. The experiment in a line: High-fat diet B6 mice, 16 weeks (body weight, serum glucose, serum insulin, food intake, visceral fat). The following applies: 10 mg/kg s.c. every other day. The format is in vivo, mouse. The protocol:
9-week-old B6 mice were divided into a control group, high-fat diet group and high-fat diet+compound of formula (Ia) group of 10 animals each, and housed and observed for 16 weeks. During this period, the compound of formula (Ia) was subcutaneously injected at 10 mg/kg every other day, body weights were measured once a week, and food intake was measured once every 4 weeks.
After 16 weeks, the body weights, bone mineral densities, fat distributions and exercise levels of the mice were measured, followed by collecting blood samples and finally sacrificing the animals and collecting their organs. The average value of body weight, serum glucose concentration and serum insulin concentration of each group after 16 weeks are shown in the following Table 17.

Regarding `CC(=O)[C@H]1CCC2C3CCc4c(C)cccc4C3CC[C@@]21C` (stereo partly shown) [Compound of formula (Ia)], the Food intake turned out to be 2.11 g/day (Week 4), 2.01 g/day (Week 8), 2.22 g/day (Week 12) and 2.34 g/day (Week 16).
